# PubChem BioAssay AID1259327, Drosophila RNAi Screening Center | 2017
# Test: 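Baseline ATP after transmembrane-protein gene knock-down with water vehicle only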
# Cell system: Drosophila S2R+ cells
# Reagents: long dsRNA against Drosophila genes
# Timing: 5 days (water added on day 4, read one day later)
# Conditions: water added as vehicle, no metal, one day before read-out
# Detection: 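Luciferase ATP signal per well, normalised to plate mean, duplicate average converted to z-score across plates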
# Reading the numbers: ATP z-score: higher = more total ATP than typical wells; ATP luminescence: higher = more total ATP
# Rule for the call: 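a hit is any knock-down whose absolute ATP z-score is greater than 1.5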
# Meaning of the calls: active = hit: ATP up or down; inactive = no clear ATP change
# This is a random part of about 3,100 reagents. In the full data, 378 (12%) are marked active. 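Hits include both directions; z-score sign shows ATP rise or fall; raw luminescence values are not plate-normalised.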 A number with no mark means an inactive call. Reagents against one gene are numbered here. Names joined by + are all predicted targets of the reagent. Reagent sequences are not shown. The record does not give: the amount of reagent.
target,reagent,"ATP z-score, duplicate mean","ATP luminescence, replicate 1 (RLU)","ATP luminescence, replicate 2 (RLU)"
OtopLa,1,-0.85,5.69e5,4.45e5
OtopLa,2,1.26,6.34e5,7.41e5
Zip48C,1,0.105,7.31e5,7.54e5
Zip48C,2,0.597,5.28e5,4.83e5
mGluR,1,1.14,5.41e5,9.04e5
mGluR,2,1.43,5.95e5,5.30e5
CG2061,1,0.311,7.23e5,7.52e5
CG2061,2,1.8 (active),5.41e5,6.01e5
Or30a,1,-0.371,6.91e5,6.83e5
Or30a,2,-0.104,4.54e5,4.62e5
Or82a,1,-0.656,4.82e5,7.54e5
Or82a,2,1.02,5.03e5,5.37e5
CG31431,1,2.21 (active),3.44e5,1.14e6
CG31431,2,1.19,5.61e5,5.31e5
dnt,1,0.857,1.00e6,9.10e5
dnt,2,-1.13,4.52e5,5.16e5
Nup98-96,1,-0.0634,7.33e5,6.66e5
Nup98-96,2,-2.85 (active),1.75e5,4.45e5
anne,1,-1.16,8.01e5,6.89e5
anne,2,0.517,5.93e5,6.54e5
Miro,1,-0.283,6.75e5,6.78e5
Miro,2,-0.84,3.94e5,4.22e5
hec,1,1.34,6.30e5,6.90e5
hec,2,1.23,6.28e5,4.66e5
PIG-G,1,1.46,9.58e5,8.14e5
Lcch3 + Ranbp16,1,0.859,5.65e5,7.61e5
TyrRII,1,-0.434,8.20e5,7.26e5
Tre1,1,3.15 (active),1.07e6,6.21e5
Tre1,2,-0.547,8.50e5,9.92e5
na,1,-0.535,4.93e5,6.54e5
na,2,0.517,5.83e5,6.65e5
Octbeta2R,1,-0.0584,7.24e5,7.49e5
Octbeta2R,2,0.113,2.83e5,8.30e5
Octbeta2R,3,-0.423,9.09e5,6.47e5
PlexA,1,0.402,7.35e5,7.59e5
BI-1,1,-0.614,6.11e5,7.21e5
BI-1,2,-1.39,3.91e5,3.32e5
Tsp42Ed,1,0.253,6.27e5,6.58e5
Tsp42Ed,2,-1.58 (active),3.39e5,3.78e5
Gr98d,1,-0.705,5.08e5,6.37e5
Gr98d,2,0.615,9.58e5,8.95e5

Reagents listed above called active (5):
target,reagent,"ATP z-score, duplicate mean","ATP luminescence, replicate 1 (RLU)","ATP luminescence, replicate 2 (RLU)"
CG2061,2,1.8 (active),5.41e5,6.01e5
CG31431,1,2.21 (active),3.44e5,1.14e6
Nup98-96,2,-2.85 (active),1.75e5,4.45e5
Tre1,1,3.15 (active),1.07e6,6.21e5
Tsp42Ed,2,-1.58 (active),3.39e5,3.78e5

The results go on:
target,reagent,"ATP z-score, duplicate mean","ATP luminescence, replicate 1 (RLU)","ATP luminescence, replicate 2 (RLU)"
DAT,1,0.183,5.53e5,7.20e5
CG12746,1,0.839,8.53e5,7.87e5
CG12746,2,1.02,4.80e5,8.55e5
CG2991,1,1.36,5.02e5,6.53e5
CG2991,2,-1.27,7.25e5,8.20e5
CG2698,1,-1.03,2.53e5,6.50e5
CG2698,2,1.22,5.38e5,5.59e5
CG46441,1,0.208,7.28e5,7.26e5
CG46441,2,0.407,9.19e5,8.29e5
CG15614,1,0.0177,5.25e5,7.18e5
CG17600,1,0.982,7.82e5,9.21e5
CG17600,2,0.457,5.99e5,6.38e5
CG17600,3,-0.886,9.49e5,1.06e6
Slc45-1,1,-0.802,8.28e5,7.55e5
Trpgamma,1,0.324,7.48e5,7.73e5
Trpgamma,2,-1.29,3.76e5,4.02e5
CG5592,1,1.33,9.54e5,1.18e6
CG5592,2,-1.06,4.26e5,3.42e5
sut3,1,-1.7 (active),4.52e5,4.80e5
sut3,2,-1.12,7.15e5,7.08e5
PK2-R2,1,0.441,2.85e5,8.95e5
PK2-R2,2,-0.147,7.80e5,8.84e5
JhI-21,1,0.386,4.38e5,5.79e5
JhI-21,2,1.08,9.81e5,9.26e5
Scamp,1,-0.447,6.99e5,6.51e5
Scamp,2,0.346,9.45e5,7.91e5
Piezo,1,0.552,4.82e5,5.56e5
Piezo,2,0.228,4.26e5,5.37e5
